Experimental data as given in patent US20120207760A1.
No constants are given. Whether binding was seen depends on the method and setting. Some binding calls cover weakened binding; strength is not graded here.

Protein sequences, listed by entry. Tags and fused reporters are not part of them.
UniProt P06821, whole entry: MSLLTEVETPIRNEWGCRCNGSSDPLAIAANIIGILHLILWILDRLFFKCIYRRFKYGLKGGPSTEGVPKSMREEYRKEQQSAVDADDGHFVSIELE

How the values were obtained:
[1] = target: M2 protein of A/Puerto Rico/8/34 (H1N1), on virus particles, infected MDCK cells or transfected cells (influenza A virus A/Puerto Rico/8/34 (H1N1)) (UniProt P06821); assay: ELISA on purified A/Puerto Rico/8/34 virus coated at 10 ug/ml (FIG. 14A)
[2] = target: M2 protein of A/Puerto Rico/8/34 (H1N1), on virus particles, infected MDCK cells or transfected cells (influenza A virus A/Puerto Rico/8/34 (H1N1)) (UniProt P06821); assay: FMAT on MDCK cells infected with A/PR/8/32, crude supernatant (FIG. 10)
[3] = target: M2 protein of A/Puerto Rico/8/34 (H1N1), on virus particles, infected MDCK cells or transfected cells (influenza A virus A/Puerto Rico/8/34 (H1N1)) (UniProt P06821); assay: ELISA on influenza virus, crude supernatant (FIG. 9)
[4] = target: M2 protein of A/Puerto Rico/8/34 (H1N1), on virus particles, infected MDCK cells or transfected cells (influenza A virus A/Puerto Rico/8/34 (H1N1)) (UniProt P06821); assay: ELISA on PR8 virus, crude supernatant
[5] = target: M2 protein of A/Puerto Rico/8/34 (H1N1), on virus particles, infected MDCK cells or transfected cells (influenza A virus A/Puerto Rico/8/34 (H1N1)) (UniProt P06821); assay: binding to MDCK cells infected with PR8 virus (FIG. 10)
[6] = target: M2 protein of A/Puerto Rico/8/34 (H1N1), on virus particles, infected MDCK cells or transfected cells (influenza A virus A/Puerto Rico/8/34 (H1N1)) (UniProt P06821); assay: flow cytometry on MDCK cells infected with A/Puerto Rico/8/34 (FIG. 14C)
[7] = target: M2 protein of A/Puerto Rico/8/34 (H1N1), on virus particles, infected MDCK cells or transfected cells (influenza A virus A/Puerto Rico/8/34 (H1N1)) (UniProt P06821); assay: flow cytometry on infected MDCK cells (FIG. 14c)

Measured: binding

B1: TCN-031 (23K12) (antibody, V domains shown)
VH: EVQLVESGGGLVQPGGSLRISCAASGFTVSSNYMSWVRQAPGKGLEWVSVIYSGGSTYYADSVKGRFSFSRDNSKNTVFLQMNSLRAEDTAVYYCARCLSRMRGYGLDVWGQGTTVTVSS
VL: DIQMTQSPSSLSASVGDRVTITCRTSQSISSYLNWYQQKPGKAPKLLIYAASSLQSGVPSRFSGSGSGTDFTLTISGLQPEDFATYYCQQSYSMPAFGQGTKLEIK
binds: all assays above
